Our source for the binding values is PMC12508185.

Amino acid sequences for entries named in this document (tags omitted). A change or cut given only in a name is not applied to a line headed by its entry.
UniProt Q9FKX5: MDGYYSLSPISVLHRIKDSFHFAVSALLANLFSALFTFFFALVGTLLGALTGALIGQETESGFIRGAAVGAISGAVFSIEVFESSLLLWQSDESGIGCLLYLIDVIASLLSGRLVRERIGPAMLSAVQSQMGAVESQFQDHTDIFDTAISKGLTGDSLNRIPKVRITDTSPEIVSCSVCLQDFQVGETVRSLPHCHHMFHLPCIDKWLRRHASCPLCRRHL

No constants are given. Whether binding was seen depends on the method and setting. Binding seen in cells or lysates may run through a third protein. A result given as binding can be weak or reduced; the word gives no strength. Where a sequence is shown, tags or fusion partners need not be part of it.

The target in assay [1] is SRAS1.2-cYFP (Arabidopsis thaliana) (UniProt Q9FKX5). Briefly: split reporter; BiFC in N. benthamiana leaves; cYFP and nYFP fusions; confocal microscopy after 48 h.
In assay [2] the target is SRAS1.2-cLUC (Arabidopsis thaliana) (UniProt Q9FKX5). The experiment in a line: split reporter; luciferase complementation imaging (LCI) in N. benthamiana leaves; cLUC and nLUC fusions; 0.2 mM D-luciferin, CCD camera.

B1: nYFP-DSK2B (protein, UniProt Q9SII8 1-551)
chain: MGGEGDSSQPQSGEGEAVAVNIRCSNGTKFSVKTSLDSTVESFKELVAQSSDVPANQQRLIYKGRILKDDQTLLSYGLQADHTIHMVRGSAPSSAPPPAPAASQTTAPSVTRGVGSDNSSNLGGASPGESLFPGLGFNPLGGGNAMSGLFGAGLPDLVQTQQQLAQNPNMIRDMMNTPAIQNLMNNPEFMRSMIMNNPQMRELVDRNPELGHVLNDPSILRQTLEAARNPELMREMMRNTDRAMSNIESMPEGFNMLRRMYENVQEPLMNATTMSGNAGNNTGSNPFAALLGNQGVTTQGSDASNNSSTPNAGTGTIPNANPLPNPWGATGGQTTAPGRTNVGGDARSPGLGGLGGLGSLGGLGGLGMLGADSPLGATPDASQLSQLLQNPAISQMMQSVFSNPQYMNQLMSLNPQLRSMLDSNPQLREMMQNPDFLRQFSSPEMMQQMMTLQQSLSQNRNTASQDAGQTGAATGNNGGLDLLMNMFGSLGAGGLSGTNQSNVPPEERYATQLQQLQEMGFYDRAENIRALLATNGNVNAAVERLLGSIGQ
Take B1: the binding entry in assay [1] is reported as “binds”.

B2: nLUC-DSK2B (protein, UniProt Q9SII8 1-551)
chain: MGGEGDSSQPQSGEGEAVAVNIRCSNGTKFSVKTSLDSTVESFKELVAQSSDVPANQQRLIYKGRILKDDQTLLSYGLQADHTIHMVRGSAPSSAPPPAPAASQTTAPSVTRGVGSDNSSNLGGASPGESLFPGLGFNPLGGGNAMSGLFGAGLPDLVQTQQQLAQNPNMIRDMMNTPAIQNLMNNPEFMRSMIMNNPQMRELVDRNPELGHVLNDPSILRQTLEAARNPELMREMMRNTDRAMSNIESMPEGFNMLRRMYENVQEPLMNATTMSGNAGNNTGSNPFAALLGNQGVTTQGSDASNNSSTPNAGTGTIPNANPLPNPWGATGGQTTAPGRTNVGGDARSPGLGGLGGLGSLGGLGGLGMLGADSPLGATPDASQLSQLLQNPAISQMMQSVFSNPQYMNQLMSLNPQLRSMLDSNPQLREMMQNPDFLRQFSSPEMMQQMMTLQQSLSQNRNTASQDAGQTGAATGNNGGLDLLMNMFGSLGAGGLSGTNQSNVPPEERYATQLQQLQEMGFYDRAENIRALLATNGNVNAAVERLLGSIGQ
With B2, in assay [2], the binding result is “binds”.
